Reference: PubChem BioAssay AID248 (DTP/NCI, 2004)
The list is a part of this screen's results and no random one: its compounds were picked by chemical class. Not every dose and run of a compound is shown. T/C gives the treated animals as a percentage of the vehicle group. Where survival is the endpoint, this PubChem deposit counts one and a half times the control or more as active, and values a quarter to a half above the control carry no call in these data; other NCI protocols may use other cut-offs. Some entries show no survivor count and are marked so; the dose need not have been tolerated. Schedules are NCI's codes, taken here to give the interval after Q, in days (D) or hours (H), and the number of doses after X. Some entries hold several experiments; the values are given in rising order. Signs of the kind (2×) say how often a value occurs here. Some schedule codes hold Z or #, which are not explained here.

Test system: L1210 leukemia ip in BDF1 mice, survival T/C
Assay: NCI In Vivo Anticancer Drug Screen. Data for tumor model L1210 Leukemia (intraperitoneal) in B6D2F1 (BDF1) mice
Settings: T/C endpoint: mean survival time, higher T/C = longer survival

## CN(CCCl)CCCl
dose: 0.06 mg/kg/injection, schedule: Q01DX009 (ip), vehicle: water
  T/C: 103 [survivor count not shown] and 105 % of control [survivor count not shown]
dose: 0.08 mg/kg/injection, schedule: Q04DX002 (ip), vehicle: water
  T/C: 97 [survivor count not shown] and 105 % of control [survivor count not shown]
dose: 0.1 mg/kg/injection, schedule: Q01DX001 (ip), vehicle: saline
  T/C: 125 [survivor count not shown] and 133 % of control [survivor count not shown]
dose: 0.12 mg/kg/injection, schedule: Q01DX001 (ip), vehicle: saline
  T/C: 129 % of control [survivor count not shown]
dose: 0.12 mg/kg/injection, schedule: Q01DX009 (ip), vehicle: water
  T/C: 131 [survivor count not shown] and 152 % of control [survivor count not shown]
dose: 0.12 mg/kg/injection, schedule: Q#A X Z (ip), vehicle: saline
  T/C: 135 % of control [survivor count not shown]
dose: 0.13 mg/kg/injection, schedule: Q01DX009 (ip), vehicle: saline
  T/C: 127 [survivor count not shown] and 129 % of control [survivor count not shown]
dose: 0.13 mg/kg/injection, schedule: Q01DX010 (ip), vehicle: saline
  T/C: 120 [survivor count not shown] and 134 % of control [survivor count not shown]
dose: 0.13 mg/kg/injection, schedule: Q01DX015 (ip), vehicle: saline
  T/C: 113 % of control [survivor count not shown]
dose: 0.16 mg/kg/injection, schedule: Q04DX002 (ip), vehicle: water
  T/C: 109 [survivor count not shown] and 112 % of control [survivor count not shown]
dose: 0.19 mg/kg/injection, schedule: Q01DX Z (ip), vehicle: saline
  T/C: 204 % of control [survivor count not shown]
dose: 0.2 mg/kg/injection, schedule: Q01DX001 (ip), vehicle: saline
  T/C: 122 % of control [survivor count not shown]
dose: 0.2 mg/kg/injection, schedule: Q01DX015 (ip), vehicle: saline
  T/C: 129 % of control [survivor count not shown]
dose: 0.21 mg/kg/injection, schedule: Q01DX001 (ip), vehicle: saline
  T/C: 132 % of control [survivor count not shown]
dose: 0.22 mg/kg/injection, schedule: Q01DX001 (ip), vehicle: saline
  T/C: 130 [survivor count not shown] and 134 % of control [survivor count not shown]
dose: 0.23 mg/kg/injection, schedule: Q01DX009 (ip), vehicle: water
  T/C: 125 [survivor count not shown] and 132 % of control [survivor count not shown]
dose: 0.25 mg/kg/injection, schedule: Q01DX001 (ip), vehicle: saline
  T/C: 139 % of control [survivor count not shown]
dose: 0.25 mg/kg/injection, schedule: Q01DX006 (iv), vehicle: saline
  T/C: 115 % of control [survivor count not shown]
dose: 0.25 mg/kg/injection, schedule: Q01DX009 (ip), vehicle: saline
  T/C: 140 [survivor count not shown] and 151 % of control [survivor count not shown]
dose: 0.25 mg/kg/injection, schedule: Q01DX010 (ip), vehicle: saline
  T/C: 131 [survivor count not shown] and 151 % of control [survivor count not shown]
dose: 0.25 mg/kg/injection, schedule: Q01DX Z (im), vehicle: saline
  T/C: 110 % of control [survivor count not shown]
dose: 0.25 mg/kg/injection, schedule: Q01DX Z (ip), vehicle: saline
  T/C: 157 [survivor count not shown] and 165 % of control [survivor count not shown]
dose: 0.25 mg/kg/injection, schedule: Q01DX Z (sc), vehicle: saline
  T/C: 113 % of control [survivor count not shown]
dose: 0.25 mg/kg/injection, schedule: Q#A X Z (ip), vehicle: saline
  T/C: 175 % of control [survivor count not shown]
dose: 0.3 mg/kg/injection, schedule: Q01DX015 (ip), vehicle: saline
  T/C: 116 % of control [survivor count not shown]
dose: 0.32 mg/kg/injection, schedule: Q04DX002 (ip), vehicle: water
  T/C: 109 [survivor count not shown] and 126 % of control [survivor count not shown]
dose: 0.38 mg/kg/injection, schedule: Q01DX Z (ip), vehicle: saline
  T/C: 333 % of control [survivor count not shown]
dose: 0.4 mg/kg/injection, schedule: Q01DX001 (ip), vehicle: saline
  T/C: 143 % of control [survivor count not shown]
dose: 0.43 mg/kg/injection, schedule: Q01DX001 (ip), vehicle: saline
  T/C: 127 % of control [survivor count not shown]
dose: 0.44 mg/kg/injection, schedule: Q01DX001 (ip), vehicle: saline
  T/C: 112 [survivor count not shown] and 115 % of control [survivor count not shown]
dose: 0.45 mg/kg/injection, schedule: Q01DX001 (ip), vehicle: saline
  T/C: 121 [survivor count not shown] and 134 % of control [survivor count not shown]
dose: 0.45 mg/kg/injection, schedule: Q01DX009 (ip), vehicle: water
  T/C: 131 [survivor count not shown] and 132 % of control [survivor count not shown]
dose: 0.5 mg/kg/injection, schedule: Q01DX001 (ip), vehicle: saline
  T/C: 141 [survivor count not shown] and 142 % of control [survivor count not shown]
dose: 0.5 mg/kg/injection, schedule: Q01DX006 (iv), vehicle: saline
  T/C: 116 % of control [survivor count not shown]
dose: 0.5 mg/kg/injection, schedule: Q01DX009 (ip), vehicle: saline
  T/C: 154 [survivor count not shown] and 188 % of control [survivor count not shown]
dose: 0.5 mg/kg/injection, schedule: Q01DX010 (ip), vehicle: saline
  T/C: 108 [survivor count not shown] and 112 % of control [survivor count not shown]
dose: 0.5 mg/kg/injection, schedule: Q01DX Z (im), vehicle: saline
  T/C: 137 % of control [survivor count not shown]
dose: 0.5 mg/kg/injection, schedule: Q01DX Z (ip), vehicle: saline
  T/C: 154 [survivor count not shown] and 171 % of control [survivor count not shown]
dose: 0.5 mg/kg/injection, schedule: Q01DX Z (sc), vehicle: saline
  T/C: 138 % of control [survivor count not shown]
dose: 0.5 mg/kg/injection, schedule: Q04DX003 (ip), vehicle: clinical formulation
  T/C: 141 % of control [survivor count not shown]
dose: 0.5 mg/kg/injection, schedule: Q04DX003 (ip), vehicle: none
  T/C: 136 % of control [survivor count not shown]
dose: 0.5 mg/kg/injection, schedule: Q04DX003 (ip), vehicle: saline
  T/C: 150 % of control [survivor count not shown]
dose: 0.5 mg/kg/injection, schedule: Q04DX003 (ip), vehicle: water
  T/C: 130 [survivor count not shown], 163 [survivor count not shown], 164 % of control [survivor count not shown]
dose: 0.6 mg/kg/injection, schedule: Q04DX002 (ip), vehicle: water
  T/C: 131 [survivor count not shown] and 135 % of control [survivor count not shown]
dose: 0.65 mg/kg/injection, schedule: Q04DX002 (ip), vehicle: water
  T/C: 124 [survivor count not shown] and 127 % of control [survivor count not shown]
dose: 0.75 mg/kg/injection, schedule: Q01DX Z (ip), vehicle: saline
  T/C: 113 % of control [survivor count not shown]
dose: 0.75 mg/kg/injection, schedule: Q03DX Z (ip), vehicle: saline
  T/C: 152 % of control [survivor count not shown]
dose: 0.8 mg/kg/injection, schedule: Q01DX001 (ip), vehicle: saline
  T/C: 113 % of control [survivor count not shown]
dose: 0.87 mg/kg/injection, schedule: Q01DX001 (ip), vehicle: saline
  T/C: 137 % of control [survivor count not shown]
dose: 0.88 mg/kg/injection, schedule: Q01DX001 (ip), vehicle: saline
  T/C: 109 [survivor count not shown] and 122 % of control [survivor count not shown]
dose: 0.9 mg/kg/injection, schedule: Q01DX001 (ip), vehicle: saline
  T/C: 219 [survivor count not shown] and 234 % of control [survivor count not shown]
dose: 1.0 mg/kg/injection, schedule: Q01DX001 (ip), vehicle: saline
  T/C: 120 % of control [survivor count not shown]
dose: 1.0 mg/kg/injection, schedule: Q01DX006 (iv), vehicle: saline
  T/C: 124 % of control [survivor count not shown]
dose: 1.0 mg/kg/injection, schedule: Q01DX009 (ip), vehicle: saline
  T/C: 88 % of control [survivor count not shown]
dose: 1.0 mg/kg/injection, schedule: Q01DX010 (ip), vehicle: saline
  T/C: 93 % of control [survivor count not shown]
dose: 1.0 mg/kg/injection, schedule: Q01DX Z (im), vehicle: saline
  T/C: 89 % of control [survivor count not shown]
dose: 1.0 mg/kg/injection, schedule: Q01DX Z (ip), vehicle: saline
  T/C: 100 [survivor count not shown] and 122 % of control [survivor count not shown]
dose: 1.0 mg/kg/injection, schedule: Q01DX Z (oral), vehicle: saline
  T/C: 113 % of control [survivor count not shown]
dose: 1.0 mg/kg/injection, schedule: Q01DX Z (sc), vehicle: saline
  T/C: 100 % of control [survivor count not shown]
dose: 1.0 mg/kg/injection, schedule: Q04DX003 (ip), vehicle: clinical formulation
  T/C: 141 % of control [survivor count not shown]
dose: 1.0 mg/kg/injection, schedule: Q04DX003 (ip), vehicle: none
  T/C: 149 % of control [survivor count not shown]
dose: 1.0 mg/kg/injection, schedule: Q04DX003 (ip), vehicle: saline
  T/C: 152 % of control [survivor count not shown]
dose: 1.0 mg/kg/injection, schedule: Q04DX003 (ip), vehicle: water
  T/C: 161 [survivor count not shown], 163 [survivor count not shown], 178 % of control [survivor count not shown]
dose: 1.3 mg/kg/injection, schedule: Q01DX001 (ip), vehicle: saline
  T/C: 155 % of control [survivor count not shown]
dose: 1.3 mg/kg/injection, schedule: Q04DX002 (ip), vehicle: water
  T/C: 124 [survivor count not shown], 129 [survivor count not shown], 130 [survivor count not shown], 145 % of control [survivor count not shown]
dose: 1.5 mg/kg/injection, schedule: Q01DX001 (ip), vehicle: saline
  T/C: 181 % of control [survivor count not shown]
dose: 1.5 mg/kg/injection, schedule: Q03DX Z (ip), vehicle: saline
  T/C: 134 % of control [survivor count not shown]
dose: 1.75 mg/kg/injection, schedule: Q01DX001 (ip), vehicle: saline
  T/C: 115 [survivor count not shown], 120 [survivor count not shown], 135 [survivor count not shown], 138 [survivor count not shown], 148 % of control [survivor count not shown]
dose: 1.75 mg/kg/injection, schedule: Q07DX Z (ip), vehicle: saline
  T/C: 149 % of control [survivor count not shown]
dose: 1.8 mg/kg/injection, schedule: Q01DX001 (ip), vehicle: saline
  T/C: 106 [survivor count not shown] and 155 % of control [survivor count not shown]
dose: 1.85 mg/kg/injection, schedule: Q#A X034 (ip), vehicle: saline
  T/C: 106 % of control [survivor count not shown]
dose: 1.9 mg/kg/injection, schedule: Q01DX001 (ip), vehicle: saline
  T/C: 168 % of control [survivor count not shown]
dose: 2.0 mg/kg/injection, schedule: Q01DX001 (ip), vehicle: saline
  T/C: 155 % of control [survivor count not shown]
dose: 2.0 mg/kg/injection, schedule: Q01DX006 (iv), vehicle: saline
  T/C: 113 % of control [survivor count not shown]
dose: 2.0 mg/kg/injection, schedule: Q01DX Z (oral), vehicle: saline
  T/C: 126 % of control [survivor count not shown]
dose: 2.0 mg/kg/injection, schedule: Q04DX003 (ip), vehicle: clinical formulation
  T/C: 145 % of control [survivor count not shown]
dose: 2.0 mg/kg/injection, schedule: Q04DX003 (ip), vehicle: none
  T/C: 133 [survivor count not shown] and 135 % of control [survivor count not shown]
dose: 2.0 mg/kg/injection, schedule: Q04DX003 (ip), vehicle: saline
  T/C: 129 % of control [survivor count not shown]
dose: 2.0 mg/kg/injection, schedule: Q04DX003 (ip), vehicle: water
  T/C: 133 [survivor count not shown], 137 [survivor count not shown] (2×), 139 % of control [survivor count not shown]
dose: 2.5 mg/kg/injection, schedule: Q01DX001 (ip), vehicle: saline
  T/C: 260 % of control [survivor count not shown]
dose: 2.6 mg/kg/injection, schedule: Q04DX002 (ip), vehicle: water
  T/C: 126 [survivor count not shown], 130 [survivor count not shown], 131 [survivor count not shown], 132 % of control [survivor count not shown]
dose: 2.9 mg/kg/injection, schedule: Q01DX001 (ip), vehicle: saline
  T/C: 168 % of control [survivor count not shown]
dose: 3.0 mg/kg/injection, schedule: Q01DX001 (ip), vehicle: saline
  T/C: 197 % of control [survivor count not shown]
dose: 3.0 mg/kg/injection, schedule: Q03DX Z (ip), vehicle: saline
  T/C: 96 % of control [survivor count not shown]
dose: 3.13 mg/kg/injection, schedule: Q01DX001 (ip), vehicle: saline
  T/C: 141 % of control [survivor count not shown]
dose: 3.5 mg/kg/injection, schedule: Q01DX001 (ip), vehicle: saline
  T/C: 113 [survivor count not shown], 117 [survivor count not shown], 124 [survivor count not shown] (2×), 135 [survivor count not shown], 211 % of control [survivor count not shown]
